According to patent publication US9549965B2, “Pharmaceutical composition for treating a microbial infection” (HELPERBY THERAPEUTICS LIMITED, priority 2010, dated 2017):
For at least one compound, name, drawing or mass did not settle the structure.

Test system: clinically latent microorganisms
Experiment: Screening for ability to kill clinically latent microorganisms (method of WO2000028074)
Type: cell-based
From the text: International Patent Application, Publication Number WO2000028074 describes a method of screening compounds to determine their ability to kill clinically latent microorganisms. […] This observation has necessitated the development of novel antimicrobials which may be used to kill clinically latent microorganisms.
By way of example, WO2000028074 describes a suitable method of screening compounds to determine their ability to kill clinically latent microorganisms. A typical method may include the following steps: • (1) growing a bacterial culture to stationary phase; • (2) treating the stationary phase culture with one or more antimicrobial agents at a concentration and or time sufficient to kill growing bacteria, thereby selecting a phenotypically resistant sub-population; • (3) incubating a sample of the phenotypically resistant subpopulation with one or more test compounds or agents; and • (4) assessing any antimicrobial effects against the phenotypically resistant subpopulation.

C[C@H]1COc2c(N3CCN(C)CC3)c(F)cc3c(=O)c(C(=O)O)cn1c23 [levofloxacin]
activity against clinically latent microorganisms: little or no activity
